Results: doi:10.1101/2024.03.29.587195 (bioRxiv, 2024)
These are yes or no findings as the source states them, for the method shown. In cells and extracts the contact can be indirect. Some results given as binding are weak or reduced against the parent protein; the word gives no strength. Where a sequence is shown, tags or fusion partners need not be part of it.

How the values were obtained:
[1] = biological target: T1, DopTAP (carboxyl-terminally epitope-tagged deamidase of Pup) (Mycobacterium tuberculosis) (UniProt P9WNU9); assay: co-IP
T1 sequence: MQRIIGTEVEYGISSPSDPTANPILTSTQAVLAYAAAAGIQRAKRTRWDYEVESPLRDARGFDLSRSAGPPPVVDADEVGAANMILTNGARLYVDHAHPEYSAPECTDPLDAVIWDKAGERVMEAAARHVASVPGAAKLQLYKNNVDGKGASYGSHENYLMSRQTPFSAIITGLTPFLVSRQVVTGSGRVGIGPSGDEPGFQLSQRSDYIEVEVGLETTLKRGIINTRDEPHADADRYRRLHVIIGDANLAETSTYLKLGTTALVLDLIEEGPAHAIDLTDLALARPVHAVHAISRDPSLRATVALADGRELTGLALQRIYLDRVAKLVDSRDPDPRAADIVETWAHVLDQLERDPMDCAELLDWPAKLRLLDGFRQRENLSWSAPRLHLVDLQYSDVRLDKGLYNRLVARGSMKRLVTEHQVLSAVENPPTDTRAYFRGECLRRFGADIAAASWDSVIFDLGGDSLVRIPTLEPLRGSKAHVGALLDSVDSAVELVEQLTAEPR

[2] = biological target: T2, PafATAP (carboxyl-terminally epitope-tagged proteasome accessory factor A) (Mycobacterium tuberculosis) (UniProt P9WNU7); assay: co-IP
T2 sequence: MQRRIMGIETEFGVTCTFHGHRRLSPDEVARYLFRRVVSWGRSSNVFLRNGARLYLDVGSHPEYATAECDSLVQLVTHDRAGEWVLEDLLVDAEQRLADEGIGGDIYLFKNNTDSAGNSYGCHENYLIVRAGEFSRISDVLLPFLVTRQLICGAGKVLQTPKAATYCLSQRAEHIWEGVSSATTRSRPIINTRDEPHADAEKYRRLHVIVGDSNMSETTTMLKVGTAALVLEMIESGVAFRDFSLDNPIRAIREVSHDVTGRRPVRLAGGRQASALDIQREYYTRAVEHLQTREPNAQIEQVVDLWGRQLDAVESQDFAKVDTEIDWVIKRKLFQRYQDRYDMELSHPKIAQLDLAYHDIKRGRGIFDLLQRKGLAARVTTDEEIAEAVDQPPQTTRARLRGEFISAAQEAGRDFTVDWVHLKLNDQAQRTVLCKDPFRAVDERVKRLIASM

B1: CoaXMtb, untagged, recombinant (cryo-EM sample) (natural protein)
chain: MLLAIDVRNTHTVVGLLSGMKEHAKVVQQWRIRTESEVTADELALTIDGLIGEDSERLTGTAALSTVPSVLHEVRIMLDQYWPSVPHVLIEPGVRTGIPLLVDNPKEVGADRIVNCLAAYDRFRKAAIVVDFGSSICVDVVSAKGEFLGGAIAPGVQVSSDAAAARSAALRRVELARPRSVVGKNTVECMQAGAVFGFAGLVDGLVGRIREDVSGFSVDHDVAIVATGHTAPLLLPELHTVDHYDQHLTLQGLRLVFERNLEVQRGRLKTAR
B1 was tested, and the binding [1] was “binds” and the binding [2] was “no binding”.
